Results from US5677283A, “α-heteroaryloxymethyl ketones as interleukin - 1 β converting enzyme inhibitors” (Sanofi, priority 1996, dated 1997).
Some results were stated once for a whole list of compounds, not compound by compound. At least one compound was matched to its structure with a doubt left. One block for each compound: values may come before it.

Target: T1, IL-1β protease (Homo sapiens, UniProt P29466)
T1 sequence (P29466 120-297 limits assumed): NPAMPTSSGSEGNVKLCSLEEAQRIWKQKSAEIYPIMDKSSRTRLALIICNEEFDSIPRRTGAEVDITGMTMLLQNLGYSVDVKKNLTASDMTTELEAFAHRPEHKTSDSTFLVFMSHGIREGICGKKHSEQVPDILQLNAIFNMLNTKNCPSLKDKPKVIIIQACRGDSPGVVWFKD
T1 sequence (P29466 317-404 limits assumed): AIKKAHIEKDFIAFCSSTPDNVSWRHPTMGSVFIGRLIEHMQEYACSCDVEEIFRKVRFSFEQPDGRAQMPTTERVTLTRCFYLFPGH
Test: IL-1β protease inhibition assay (HPLC, TRITC-AYVHDAPVRS-NH2 substrate)
Type: biochemical
Conditions: partially purified enzyme; 15 min preincubation with inhibitor at 37° C.; substrate 67 μM; 60 minutes at 37° C.

Compound: CC(C)[C@H](NC(=O)NCc1ccncc1)C(=O)N[C@@H](C)C(=O)N[C@@H](CC(=O)O)C(=O)COc1cc(C(F)(F)F)nn1-c1ccccc1 [Example 26, N-[4-(Pyridyl)methyl]carbamoyl-L-valine-L-alanine-L-aspartic acid 5-(1-phenyl-3-trifluoromethyl)pyrazolyloxymethyl ketone]
- IC50: < 10 µM

Compound: CC(C)[C@H](NC(=O)N(C)Cc1ccncc1)C(=O)N[C@@H](C)C(=O)N[C@@H](CC(=O)O)C(=O)COc1cc(C(F)(F)F)nn1-c1ccccc1 [Example 25]
- IC50: < 10 µM

Compound: CC(C)[C@H](NC(=O)OCc1ccccc1)C(=O)N[C@@H](C)C(=O)N[C@@H](CC(=O)O)C(=O)COc1cc(C(F)(F)F)nn1-c1ccccc1 [Example 12, N-Benzyloxycarbonyl-L-valine-L-alanine-L-aspartic acid 5-(1-phenyl-3-trifluoromethyl)pyrazolyloxymethyl ketone]
- IC50: < 10 µM

Compound: Cc1cc(OCC(=O)[C@H](CC(=O)O)NC(=O)OCc2ccccc2)n(-c2ccc(F)cc2)n1 [Example 4, N-Benzyloxycarbonyl-L-aspartic acid 5-(1-(p-fluorophenyl)-3-methyl)pyrazolyloxymethyl ketone]
- IC50: < 10 µM

Compound: Cc1cc(OCC(=O)[C@H](CC(=O)O)NC(=O)[C@@H](NC(=O)OCc2ccccc2)C(C)C)n(-c2ccc(C(F)(F)F)cc2)n1 [Example 17, N-Benzyloxycarbonyl-L-valine-L-aspartic acid 5-(1-(p-trifluoromethylphenyl)-3-methyl)pyrazolyloxymethyl ketone]
- IC50: < 10 µM

Compound: Cc1nn(-c2ccc(Cl)cc2)c(OCC(=O)[C@H](CC(=O)O)NC(=O)[C@@H](NC(=O)OCc2ccccc2)C(C)C)c1-c1ccccc1 [Example 28, N-Benzyloxycarbonyl-L-vatine-L-aspartic acid 5-(1-(p-chlorophenyl)-3-methyl-4-phenyl)pyrazolyloxymethyl ketone]
- IC50: < 10 µM

Compound: CC(C)[C@H](NC(=O)OCc1ccccc1)C(=O)N[C@@H](CC(=O)O)C(=O)COc1cc(C(F)(F)F)nn1-c1ccccc1 [Example 14, N-Benzyloxycarbonyl-L-valine-L-aspartic acid 5-(1-phenyl-3-trifluoromethyl)-pyrazolyloxymethyl ketone]
- IC50: < 10 µM

Compound: Cc1cc(OCC(=O)[C@H](CC(=O)O)NC(=O)OCc2ccccc2)n(-c2cccc(Cl)c2)n1 [Example 10]
- IC50: < 10 µM

Compound: O=C(O)C[C@H](NC(=O)OCc1ccccc1)C(=O)COc1cc(C(F)(F)F)nn1-c1ccccc1 [Example 3, N-Benzyloxycarbonyl-L-aspartic acid 5-(1-phenyl-3-trifluoromethyl)pyrazolyloxy methyl ketone]
- IC50: < 10 µM

Compound: CC(C)[C@H](NC(=O)OCc1ccccc1)C(=O)N[C@@H](CC(=O)O)C(=O)COc1cc(C(C)(C)C)nn1-c1ccccc1 [Example 16, N-Benzyloxycarbonyl-L-valine-L-aspartic acid 5-(1-phenyl-3-t-butyl)pyrazolyloxymethyl ketone]
- IC50: < 10 µM

Compound: O=C(O)C[C@H](NC(=O)OCc1ccccc1)C(=O)COc1cc(C(F)(F)F)nn1Cc1ccccc1 [Example 11, N-Benzyloxycarbonyl-L-aspartic acid 5-(1-benzyl-3-trifluoromethyl)pyrazolyloxy methyl ketone]
- IC50: < 10 µM

Compound: Cc1cc(OCC(=O)[C@H](CC(=O)O)NC(=O)OCc2ccccc2)n(-c2ccccc2)n1 [Example 9, N-Benzyloxycarbonyl-L-aspartic acid 5-(1-phenyl-3-methyl)pyrazolyloxymethylketone]
- IC50: < 10 µM

Compound: CC(C)[C@H](NC(=O)OCc1ccccc1)C(=O)N[C@@H](CC(=O)O)C(=O)COc1cc(-c2ccccc2)nn1-c1ccccc1 [Example 24, N-Benzyloxycarbonyl-L-valine-L-aspartic acid 5-(1.3-diphenyl) pyrazolyloxymethyl ketone]
- IC50: < 10 µM

Compound: Cc1cc(OCC(=O)[C@H](CC(=O)O)NC(=O)[C@@H](NC(=O)OCc2ccccc2)C(C)C)n(-c2ccc(S(C)(=O)=O)cc2)n1 [Example 21, N-Benzyloxycarbonyl-L-valine-L-aspartic acid 5-(1-(p-methanesulfonylphenyl)-3-methyl)pyrazolyloxymethyl ketone]
- IC50: < 10 µM

Compound: Cc1nn(C)c(OCC(=O)[C@H](CC(=O)O)NC(=O)OCc2ccccc2)c1-c1ccccc1 [Example 20, N-Benzyloxycarbonyl-L-aspartic acid 5-(1.3-dimethyl-4-phenyl)pyrazolyloxymethyl ketone]
- IC50: < 10 µM

Compound: CC(C)[C@H](NC(=O)N(C)CCc1ccncc1)C(=O)N[C@@H](C)C(=O)N[C@@H](CC(=O)O)C(=O)COc1cc(C(F)(F)F)nn1-c1ccccc1 [Example 36, N-Methyl-N-[2-(4-pyridyl)ethyl]carbamoyl-L-valine-L-alanine-L-aspartic acid 5-(1-phenyl-3-trifluoromethyl)pyrazolyloxymethyl ketone]
- IC50: < 10 µM

Continued, values first:

- IC50: < 10 µM
Compound: Cc1cc(OCC(=O)[C@H](CC(=O)O)NC(=O)[C@@H](NC(=O)OCc2ccccc2)C(C)C)n(-c2ccccc2)n1 [Example 15, N-Benzyloxycarbonyl-L-valine-L-aspartic acid 5-(1-phenyl-3-methyl)pyrazolyloxymethyl ketone]

- IC50: < 10 µM
Compound: N-3-(piperidinopropionyl)-L-valine-L-alanine-L-aspartic acid 5-(1-phenyl-3-methyl)pyrazolyloxymethyl ketone [Example 30]

- IC50: < 10 µM
Compound: CC(C)[C@H](NC(=O)OCc1ccccn1)C(=O)N[C@@H](C)C(=O)N[C@@H](CC(=O)O)C(=O)COc1cc(C(F)(F)F)nn1-c1ccccc1 [Example 34, N-(2-pyridyl)methoxycarbonyl-L-valine-L-alanine-L-aspartic acid 5-(1-phenyl-3-trifluoromethyl)pyrazolyloxymethyl ketone]

- IC50: < 10 µM
Compound: CC(C)[C@H](NC(=O)c1ccc(CN(C)C)cc1)C(=O)N[C@@H](C)C(=O)N[C@@H](CC(=O)O)C(=O)COc1cc(C(F)(F)F)nn1-c1ccccc1 [Example 19, N-4-(N.N-Dimethylaminomethyl)benzoyl-L-valine-L-alanine-L-aspartic acid 5-(1-phenyl-3-trifluoromethyl)pyrazolyloxymethyl ketone]

- IC50: < 10 µM
Compound: COc1ccc(-n2nc(C)cc2OCC(=O)[C@H](CC(=O)O)NC(=O)OCc2ccccc2)cc1 [Example 6, N-Benzyloxycarbonyl-L-aspartic acid 5-(1-(p-methoxyphenyl)-3-methyl)pyrazolyloxymethyl ketone]

- IC50: < 10 µM
Compound: Cc1nn(-c2ccccc2)c(OCC(=O)[C@H](CC(=O)O)NC(=O)[C@@H](NC(=O)OCc2ccccc2)C(C)C)c1-c1ccccc1 [Example 29, N-Benzyloxycarbonyl-L-valine-L-aspartic acid 5-(1.4-diphenyl-3-methyl)pyrazolyloxymethyl ketone]

- IC50: < 10 µM
Compound: CC(C)[C@H](NC(=O)N1CCN(c2ccccc2)CC1)C(=O)N[C@@H](C)C(=O)N[C@@H](CC(=O)O)C(=O)COc1cc(C(F)(F)F)nn1-c1ccccc1 [Example 37, N-(N-Phenylpiperazino)carbonyl-L-valine-L-alanine-L-aspartic acid 5-(1-phenyl-3-trifluoromethyl)pyrazolyloxy methyl ketone]

- IC50: < 10 µM
Compound: N-Methyl-N-benzylcarbamoyl-L-valine-L-alanine-L-aspartic acid 5-(1-phenyl-3-trifluoromethyl)pyrazolyloxymethyl ketone [Example 35]

- IC50: < 10 µM
Compound: CC(C)[C@H](NC(=O)OCc1cccnc1)C(=O)N[C@@H](C)C(=O)N[C@@H](CC(=O)O)C(=O)COc1cc(C(F)(F)F)nn1-c1ccccc1 [Example 33, N-(3-pyridyl)methoxycarbonyl-L-valine-L-alanine-L-aspartic acid 5-(1-phenyl-3-trifluoromethyl)pyrazolyloxymethyl ketone]

- IC50: < 10 µM
Compound: CCOC(=O)c1cc(OCC(=O)[C@H](CC(=O)O)NC(=O)[C@@H](NC(=O)OCc2ccccc2)C(C)C)n(-c2ccccc2)n1 [Example 23, N-Benzyloxycarbonyl-L-valine-L-aspartic acid 5-(1-phenyl-3-carbethoxy)pyrazolyloxymethyl ketone]

- IC50: < 10 µM
Compound: Cc1cc(OCC(=O)[C@H](CC(=O)O)NC(=O)OCc2ccccc2)n(-c2ccc([N+](=O)[O-])cc2)n1 [Example 5, N-Benzyloxycarbonyl-L-aspartic acid 5-(1-(p-nitrophenyl)-3-methyl)pyrazolyloxymethyl ketone]

- IC50: < 10 µM
Compound: Cc1cc(OCC(=O)[C@H](CC(=O)O)NC(=O)[C@H](C)NC(=O)[C@@H](NC(=O)OCc2ccccc2)C(C)C)n(-c2ccccc2)n1 [Example 8, N-Benzyloxycarbonyl-L-valine-L-alanine-L-aspartic acid 5-(1-.phenyl-3-methyl)-pyrazolyloxymethyl ketone]

- IC50: < 10 µM
Compound: CC(C)[C@H](NC(=O)OCc1ccccc1)C(=O)N[C@@H](C)C(=O)N[C@H](CC(=O)O)C(=O)COc1cc(C(F)(F)F)nn1-c1ccccc1 [Example 27, N-Benzyloxycarbonyl-L-valine-L-alanine-D-aspartic acid 5-(1-phenyl-3-trifluoromethyl)pyrazolyloxymethyl ketone]

- IC50: < 10 µM
Compound: Cc1nn(C)c(OCC(=O)[C@H](CC(=O)O)NC(=O)[C@@H](NC(=O)OCc2ccccc2)C(C)C)c1-c1ccccc1 [Example 22, N-Benzyloxycarbonyl-L-valine-L-aspartic acid 5-(1.3-dimethyl-4-phenyl)pyrazolyloxymethyl ketone]

- IC50: < 10 µM
Compound: Cc1cc(OCC(=O)[C@H](CC(=O)O)NC(=O)OCc2ccccc2)n(C)n1 [Example 2, N-Benzyloxycarbonyl-L-aspartic acid 5-(1,3-dimethyl)pyrazolyloxymethyl ketone]

- IC50: < 10 µM
Compound: Cc1cc(OCC(=O)[C@H](CC(=O)O)NC(=O)OCc2ccccc2)n(-c2ccc(Cl)cc2)n1 [Example 7, N-Benzyloxycarbonyl-L-aspartic acid 5-(1-(p-chlorophenyl)-3-methyl)pyrazolyloxymethyl ketone]
